Experimental data as given in patent US20080207724A1, “Use of Inhibitors of Histone Deacteylases in Combination With Compounds Acting as Nsaid for the Therapy of Human Diseases” (priority 2005, published 2008).
At least one structure is not confirmed: it was looked up by name or label, or the drawing left a doubt.

Experiments:
THP-1 monocytes = assay: Prostaglandin secretion, Celecoxib plus HDAC inhibitor, THP-1 monocytes; type: cell-based, human; conditions: Celecoxib alone, FIG. 4
Protocol: In parallel, Cox-2 protein levels were reduced as already described.
In detail, cells were seeded at a density of 7,5×10^4 per well in 24 well plates. Supernatants were analyzed in a dilution of 1:3 in duplicates with the prostaglandin E2 EIA Kit from Cayman according to the manufacture's instructions. Bars show the mean of two values. Cell extracts were prepared by removing growth medium completely and adding of 200 μl of Laemmli Sample buffer per well. Subsequently, 60 μl were loaded on 8% acrylamide gels and subjected to discontinuous electrophoresis. Proteins blotted onto PVDF membranes which were probed with a goat anti-Cox-2 antibody (St. Cruz, scl 747) or a mouse anti-pan-actin (to analyze the expression of this control protein) antibody (Ab-5, NeoMarkers).

prostaglandin E2 = assay: Prostaglandin levels in liver extracts of APCmin mice (ex vivo cyclooxygenase activity); set-up: species or system mouse; conditions: liver taken 3 hours after final dose, same treatment as adenoma study, FIG. 5b
Protocol: Control animals were injected (i.p.) with PBS. […] At sacrifice entire intestinal tracts were opened longitudinally and fixed in 10% phosphate buffered formaldehyde for 24 hours followed by ethanol-fixation in 50% ethanol for three days. […] Cyclooxygenase activity was assessed ex vivo in hepatic tissue as described (Reuter et al., 2002; BMC Cancer 2:19). Briefly, mice were euthanized 3 hours following the final dose of vehicle or drugs and a sample of liver tissue (−100 mg) was obtained. The samples were then placed into microcentrifuge tubes containing 1 ml of sodium phosphate buffer (10 mM, pH 7.4) and finely minced with scissors for 15 seconds. Samples were then incubated for 20 min at […] in a shaking water bath. After the incubation period, samples were centrifuged at 9000×g for 30 seconds and the supernatants collected. Supernatants were flash frozen in liquid nitrogen and stored at […] for subsequent determination of prostaglandin E2 content. PGE2 concentrations were determined in duplicates after 1:20 dilution of supernatants using a commercially available competitive Enzyme Immunoassay (Cayman Chemical).

For `Cc1ccc(-c2cc(C(F)(F)F)nn2-c2ccc(S(N)(=O)=O)cc2)cc1` [Celecoxib], which prostaglandin levels (THP-1 monocytes) is on record?
The prostaglandin levels was “repressed”.

And the “prostaglandin levels in liver extracts” value (prostaglandin E2)?
The value was “decrease”.
